The supplement of paper PMC12823440, “Inhibitors supercharge kinase turnover through native proteolytic circuits” (Nature, 2025)
Structures can show the parent of a compound that is named as a salt. The list shows a part of the results. The calls rarely recur for the same compound in another form.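 Kinases were expressed as nanoluciferase fusions in K562 cells and luminescence was read every 4 h between 2 and 18 h as percent of control, DMSO set to 100% and a positive control to 0%. A time point counts as decreased when the signal drops significantly (2 sigma). The hit call is the authors' own, does not follow from the count of time points alone, and its rule is not shown.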

Sequences of proteins named here, by UniProt entry; tags and fusion partners are left off.
UniProt P29317, whole entry: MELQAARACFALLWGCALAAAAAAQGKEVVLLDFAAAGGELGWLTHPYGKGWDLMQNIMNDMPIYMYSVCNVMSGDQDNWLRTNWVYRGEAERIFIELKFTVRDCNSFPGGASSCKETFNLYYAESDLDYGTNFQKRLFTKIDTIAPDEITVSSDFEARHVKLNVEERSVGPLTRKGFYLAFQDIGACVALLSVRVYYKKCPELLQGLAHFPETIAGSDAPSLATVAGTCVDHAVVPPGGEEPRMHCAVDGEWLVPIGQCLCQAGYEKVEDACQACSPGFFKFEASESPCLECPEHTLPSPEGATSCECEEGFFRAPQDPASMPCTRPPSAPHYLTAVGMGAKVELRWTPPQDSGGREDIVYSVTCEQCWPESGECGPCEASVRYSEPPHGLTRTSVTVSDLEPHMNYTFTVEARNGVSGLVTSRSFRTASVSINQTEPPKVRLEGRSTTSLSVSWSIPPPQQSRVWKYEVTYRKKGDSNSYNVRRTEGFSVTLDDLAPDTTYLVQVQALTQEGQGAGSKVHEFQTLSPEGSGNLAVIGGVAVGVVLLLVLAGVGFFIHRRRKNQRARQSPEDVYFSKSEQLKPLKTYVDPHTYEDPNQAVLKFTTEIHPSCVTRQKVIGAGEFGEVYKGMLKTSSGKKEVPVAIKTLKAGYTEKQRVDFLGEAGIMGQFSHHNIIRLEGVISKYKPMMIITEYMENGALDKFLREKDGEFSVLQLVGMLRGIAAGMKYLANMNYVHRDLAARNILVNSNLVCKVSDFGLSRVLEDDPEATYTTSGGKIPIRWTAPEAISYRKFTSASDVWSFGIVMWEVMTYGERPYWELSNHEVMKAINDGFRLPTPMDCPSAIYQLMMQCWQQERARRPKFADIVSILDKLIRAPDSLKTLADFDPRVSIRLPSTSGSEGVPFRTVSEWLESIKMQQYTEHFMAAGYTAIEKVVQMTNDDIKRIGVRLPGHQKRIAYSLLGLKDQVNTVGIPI
UniProt P21860, whole entry: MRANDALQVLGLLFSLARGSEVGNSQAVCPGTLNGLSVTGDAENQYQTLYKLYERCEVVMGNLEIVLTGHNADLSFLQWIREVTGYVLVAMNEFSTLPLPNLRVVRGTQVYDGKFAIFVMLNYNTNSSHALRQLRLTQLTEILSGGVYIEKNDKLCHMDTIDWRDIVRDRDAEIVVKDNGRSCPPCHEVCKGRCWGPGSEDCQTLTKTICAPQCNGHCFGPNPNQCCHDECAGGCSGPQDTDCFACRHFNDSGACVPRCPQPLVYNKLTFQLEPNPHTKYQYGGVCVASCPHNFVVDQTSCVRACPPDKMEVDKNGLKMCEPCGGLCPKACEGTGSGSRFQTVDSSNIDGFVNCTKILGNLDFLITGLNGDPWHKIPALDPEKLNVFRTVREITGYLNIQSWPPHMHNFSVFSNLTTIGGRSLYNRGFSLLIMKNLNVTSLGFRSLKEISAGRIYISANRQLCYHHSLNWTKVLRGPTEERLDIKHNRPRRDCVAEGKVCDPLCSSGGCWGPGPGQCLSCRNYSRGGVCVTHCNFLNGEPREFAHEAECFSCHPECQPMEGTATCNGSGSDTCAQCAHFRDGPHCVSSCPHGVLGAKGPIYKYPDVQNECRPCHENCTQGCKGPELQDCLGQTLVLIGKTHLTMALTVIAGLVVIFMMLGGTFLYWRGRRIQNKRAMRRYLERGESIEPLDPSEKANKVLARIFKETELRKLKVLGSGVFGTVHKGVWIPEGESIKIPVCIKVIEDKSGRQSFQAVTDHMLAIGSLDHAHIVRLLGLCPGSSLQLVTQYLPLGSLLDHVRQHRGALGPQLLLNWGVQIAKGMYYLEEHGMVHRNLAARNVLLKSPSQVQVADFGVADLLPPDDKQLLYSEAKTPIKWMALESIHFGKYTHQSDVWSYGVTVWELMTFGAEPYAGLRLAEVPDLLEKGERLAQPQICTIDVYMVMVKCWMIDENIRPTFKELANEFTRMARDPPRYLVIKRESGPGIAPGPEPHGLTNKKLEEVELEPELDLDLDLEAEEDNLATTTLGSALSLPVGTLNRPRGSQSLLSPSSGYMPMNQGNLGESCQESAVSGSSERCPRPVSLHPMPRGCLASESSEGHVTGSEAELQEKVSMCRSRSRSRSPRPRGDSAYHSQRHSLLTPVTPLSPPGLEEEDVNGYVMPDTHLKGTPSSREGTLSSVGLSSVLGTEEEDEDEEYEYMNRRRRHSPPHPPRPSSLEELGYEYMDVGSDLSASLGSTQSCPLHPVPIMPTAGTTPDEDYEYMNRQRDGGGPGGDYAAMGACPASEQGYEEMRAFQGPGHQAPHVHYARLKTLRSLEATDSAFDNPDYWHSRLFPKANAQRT
UniProt Q15303, whole entry R711C: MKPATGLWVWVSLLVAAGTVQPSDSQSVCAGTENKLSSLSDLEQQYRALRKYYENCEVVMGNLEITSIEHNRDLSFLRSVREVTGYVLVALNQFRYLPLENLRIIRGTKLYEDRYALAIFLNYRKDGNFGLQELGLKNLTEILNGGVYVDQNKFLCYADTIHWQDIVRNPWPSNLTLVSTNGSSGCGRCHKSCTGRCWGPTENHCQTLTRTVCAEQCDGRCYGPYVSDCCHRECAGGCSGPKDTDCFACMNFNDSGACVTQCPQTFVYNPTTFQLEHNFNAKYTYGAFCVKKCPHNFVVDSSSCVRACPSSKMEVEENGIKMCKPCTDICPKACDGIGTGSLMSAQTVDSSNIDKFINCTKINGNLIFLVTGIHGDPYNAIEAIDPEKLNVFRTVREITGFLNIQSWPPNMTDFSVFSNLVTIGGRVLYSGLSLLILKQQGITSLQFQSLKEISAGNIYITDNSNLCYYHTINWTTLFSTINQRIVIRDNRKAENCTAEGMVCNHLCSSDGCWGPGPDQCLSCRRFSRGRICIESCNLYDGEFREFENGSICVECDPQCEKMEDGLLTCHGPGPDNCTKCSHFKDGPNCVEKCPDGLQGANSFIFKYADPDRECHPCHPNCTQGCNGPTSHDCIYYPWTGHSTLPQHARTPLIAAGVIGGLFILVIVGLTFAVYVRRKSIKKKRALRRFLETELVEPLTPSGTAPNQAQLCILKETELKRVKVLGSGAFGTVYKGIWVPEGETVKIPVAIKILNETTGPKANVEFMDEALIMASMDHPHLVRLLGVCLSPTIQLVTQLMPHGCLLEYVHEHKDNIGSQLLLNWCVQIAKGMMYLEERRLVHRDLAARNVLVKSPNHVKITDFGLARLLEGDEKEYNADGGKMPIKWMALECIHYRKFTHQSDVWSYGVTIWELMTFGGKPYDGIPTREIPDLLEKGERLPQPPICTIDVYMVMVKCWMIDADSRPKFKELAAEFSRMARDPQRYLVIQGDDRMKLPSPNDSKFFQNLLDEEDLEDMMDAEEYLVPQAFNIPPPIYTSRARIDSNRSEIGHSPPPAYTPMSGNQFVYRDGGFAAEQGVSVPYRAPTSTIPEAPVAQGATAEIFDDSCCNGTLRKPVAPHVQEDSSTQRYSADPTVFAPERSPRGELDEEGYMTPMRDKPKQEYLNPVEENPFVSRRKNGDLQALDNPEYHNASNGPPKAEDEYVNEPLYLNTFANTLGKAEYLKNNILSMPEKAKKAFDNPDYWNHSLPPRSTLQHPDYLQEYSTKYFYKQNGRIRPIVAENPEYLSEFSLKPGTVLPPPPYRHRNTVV

How the values were obtained:
Assay in all cases: kinase-Nluc reporter destabilization hit call (1 = scored as downregulated) (binary); higher = compound decreases kinase abundance
Conditions in all cases: K562, 2-18 h
EGFR = EGFR (UniProt P00533)
EGFR_G719S = EGFR_G719S (UniProt P00533)
EGFR_G719S_T790M = EGFR_G719S_T790M (UniProt P00533)
EGFR_L718V = EGFR_L718V (UniProt P00533)
EGFR_L858R = EGFR_L858R (UniProt P00533)
EGFR_L861Q = EGFR_L861Q (UniProt P00533)
EGFR_T790M = EGFR_T790M (UniProt P00533)
EPHA2 = EPHA2 (UniProt P29317)
ERBB3 = ERBB3 (UniProt P21860)
[1] = target: ERBB4_R711C (clone: ERBB4_mut) (UniProt Q15303)

Measured: kinase-Nluc reporter destabilization hit call

O=C(Nc1ccncc1)Nc1ccc(-c2nc(N3CCOCC3)nc(N3C4CCC3COC4)n2)cc1
inactive: EGFR; 10 µM 0 | EGFR_G719S; 10 µM 0 | EGFR_G719S_T790M; 10 µM 0 | EGFR_L718V; 10 µM 0 | EGFR_L858R; 10 µM 0 | EGFR_L861Q; 10 µM 0 | EGFR_T790M; 10 µM 0 | EPHA2; 10 µM 0 | ERBB3; 10 µM 0 | [1]; 10 µM 0

COc1cc(/C=C/C(=O)O)ccc1O [Ferulic acid (sodium)]
inactive: EGFR; 10 µM 0 | EGFR_G719S; 10 µM 0 | EGFR_G719S_T790M; 10 µM 0 | EGFR_L718V; 10 µM 0 | EGFR_L858R; 10 µM 0 | EGFR_L861Q; 10 µM 0 | EGFR_T790M; 10 µM 0 | EPHA2; 10 µM 0 | ERBB3; 10 µM 0 | [1]; 10 µM 0

O=C(c1ccc(F)c(F)c1Nc1ccc(I)cc1F)N1CC(O)([C@@H]2CCCCN2)C1 [Cobimetinib]
inactive: EGFR; 10 µM 0 | EGFR_G719S; 10 µM 0 | EGFR_G719S_T790M; 10 µM 0 | EGFR_L718V; 10 µM 0 | EGFR_L858R; 10 µM 0 | EGFR_L861Q; 10 µM 0 | EGFR_T790M; 10 µM 0 | EPHA2; 10 µM 0 | ERBB3; 10 µM 0 | [1]; 10 µM 0

c1cc(-c2cnn3cc(-c4ccc(OCCN5CCCCC5)cc4)cnc23)ccn1 [Dorsomorphin (dihydrochloride)]
inactive: EGFR; 2.5 µM 0 | EGFR_G719S; 2.5 µM 0 | EGFR_G719S_T790M; 2.5 µM 0 | EGFR_L718V; 2.5 µM 0 | EGFR_L858R; 2.5 µM 0 | EGFR_L861Q; 2.5 µM 0 | EGFR_T790M; 2.5 µM 0 | EPHA2; 2.5 µM 0 | ERBB3; 2.5 µM 0 | [1]; 2.5 µM 0

CCN(CC)CC(=O)Nc1c(C)cccc1C [Lidocaine]
inactive: EGFR; 10 µM 0 | EGFR_G719S; 10 µM 0 | EGFR_G719S_T790M; 10 µM 0 | EGFR_L718V; 10 µM 0 | EGFR_L858R; 10 µM 0 | EGFR_L861Q; 10 µM 0 | EGFR_T790M; 10 µM 0 | EPHA2; 10 µM 0 | ERBB3; 10 µM 0 | [1]; 10 µM 0

OCCn1cc(-c2cnc3nnn(Cc4ccc5ncccc5c4)c3n2)cn1
inactive: EGFR; 10 µM 0 | EGFR_G719S; 10 µM 0 | EGFR_G719S_T790M; 10 µM 0 | EGFR_L718V; 10 µM 0 | EGFR_L858R; 10 µM 0 | EGFR_L861Q; 10 µM 0 | EGFR_T790M; 10 µM 0 | EPHA2; 10 µM 0 | ERBB3; 10 µM 0 | [1]; 10 µM 0

COc1ccc(S(=O)(=O)Nc2ccccc2CN(C)C/C=C/c2ccc(Cl)cc2)cc1 [KN-92 (phosphate)]
inactive: EGFR; 2.5 µM 0 | EGFR_G719S; 2.5 µM 0 | EGFR_G719S_T790M; 2.5 µM 0 | EGFR_L718V; 2.5 µM 0 | EGFR_L858R; 2.5 µM 0 | EGFR_L861Q; 2.5 µM 0 | EGFR_T790M; 2.5 µM 0 | EPHA2; 2.5 µM 0 | ERBB3; 2.5 µM 0 | [1]; 2.5 µM 0

Nc1cncc(-c2cn3ccnc3c(Nc3ccc(N4CCN(C5COC5)CC4)cc3)n2)n1 [Lanraplenib]
inactive: EGFR; 10 µM 0 | EGFR_G719S; 10 µM 0 | EGFR_G719S_T790M; 10 µM 0 | EGFR_L718V; 10 µM 0 | EGFR_L858R; 10 µM 0 | EGFR_L861Q; 10 µM 0 | EGFR_T790M; 10 µM 0 | EPHA2; 10 µM 0 | ERBB3; 10 µM 0 | [1]; 10 µM 0

O=C(Nc1cnn2ccc(N3CCC[C@@H]3c3cc(F)ccc3F)nc12)N1CC[C@H](O)C1 [Larotrectinib]
inactive: EGFR; 10 µM 0 | EGFR_G719S; 10 µM 0 | EGFR_G719S_T790M; 10 µM 0 | EGFR_L718V; 10 µM 0 | EGFR_L858R; 10 µM 0 | EGFR_L861Q; 10 µM 0 | EGFR_T790M; 10 µM 0 | EPHA2; 10 µM 0 | ERBB3; 10 µM 0 | [1]; 10 µM 0

CN(C)C(=O)c1cc2cnc(Nc3ccc(N4CCNCC4)cn3)nc2n1C1CCCC1 [Ribociclib]
inactive: EGFR; 10 µM 0 | EGFR_G719S; 10 µM 0 | EGFR_G719S_T790M; 10 µM 0 | EGFR_L718V; 10 µM 0 | EGFR_L858R; 10 µM 0 | EGFR_L861Q; 10 µM 0 | EGFR_T790M; 10 µM 0 | EPHA2; 10 µM 0 | ERBB3; 10 µM 0 | [1]; 10 µM 0

COc1cc2c(Oc3ccc4[nH]c(C)cc4c3F)ncnc2cc1OCCCN1CCCC1 [Cediranib (maleate)]
inactive: EGFR; 2.5 µM 0 | EGFR_G719S; 2.5 µM 0 | EGFR_G719S_T790M; 2.5 µM 0 | EGFR_L718V; 2.5 µM 0 | EGFR_L858R; 2.5 µM 0 | EGFR_L861Q; 2.5 µM 0 | EGFR_T790M; 2.5 µM 0 | EPHA2; 2.5 µM 0 | ERBB3; 2.5 µM 0 | [1]; 2.5 µM 0

CS(=O)(=O)N1CCN(Cc2cc3nc(-c4cccc5[nH]ncc45)nc(N4CCOCC4)c3s2)CC1 [Pictilisib]
inactive: EGFR; 10 µM 0 | EGFR_G719S; 10 µM 0 | EGFR_G719S_T790M; 10 µM 0 | EGFR_L718V; 10 µM 0 | EGFR_L858R; 10 µM 0 | EGFR_L861Q; 10 µM 0 | EGFR_T790M; 10 µM 0 | EPHA2; 10 µM 0 | ERBB3; 10 µM 0 | [1]; 10 µM 0

CNC(=O)c1ccc(Nc2ncc(C(F)(F)F)c(NCc3nccnc3N(C)S(C)(=O)=O)n2)cc1 [Defactinib]
inactive: EGFR; 10 µM 0 | EGFR_G719S; 10 µM 0 | EGFR_G719S_T790M; 10 µM 0 | EGFR_L718V; 10 µM 0 | EGFR_L858R; 10 µM 0 | EGFR_L861Q; 10 µM 0 | EGFR_T790M; 10 µM 0 | EPHA2; 10 µM 0 | ERBB3; 10 µM 0 | [1]; 10 µM 0

CC(C)NC[C@@H](C(=O)N1CCN(c2ncnc3c2[C@H](C)C[C@H]3O)CC1)c1ccc(Cl)cc1 [Ipatasertib]
inactive: EGFR; 10 µM 0 | EGFR_G719S; 10 µM 0 | EGFR_G719S_T790M; 10 µM 0 | EGFR_L718V; 10 µM 0 | EGFR_L858R; 10 µM 0 | EGFR_L861Q; 10 µM 0 | EGFR_T790M; 10 µM 0 | EPHA2; 10 µM 0 | ERBB3; 10 µM 0 | [1]; 10 µM 0

CCCCCCCCc1ccc(CCC(N)(CO)CO)cc1 [Fingolimod]
inactive: EGFR; 2.5 µM 0 | EGFR_G719S; 2.5 µM 0 | EGFR_G719S_T790M; 2.5 µM 0 | EGFR_L718V; 2.5 µM 0 | EGFR_L858R; 2.5 µM 0 | EGFR_L861Q; 2.5 µM 0 | EGFR_T790M; 2.5 µM 0 | EPHA2; 2.5 µM 0 | ERBB3; 2.5 µM 0 | [1]; 2.5 µM 0

CN(C)C/C=C/C(=O)Nc1cc2c(Nc3ccc(F)c(Cl)c3)ncnc2cc1O[C@H]1CCOC1 [Afatinib (dimaleate)]
inactive: EPHA2; 2.5 µM 0 | ERBB3; 2.5 µM 0 | [1]; 2.5 µM 0

CCN(CC)CC(=O)Nc1c(C)cccc1C [Lidocaine (hydrochloride)]
inactive: EGFR; 10 µM 0 | EGFR_G719S; 10 µM 0 | EGFR_G719S_T790M; 10 µM 0 | EGFR_L718V; 10 µM 0 | EGFR_L858R; 10 µM 0 | EGFR_L861Q; 10 µM 0 | EGFR_T790M; 10 µM 0 | EPHA2; 10 µM 0 | ERBB3; 10 µM 0 | [1]; 10 µM 0

CCCCCCCCc1ccc(CCC(N)(CO)CO)cc1 [Fingolimod (hydrochloride)]
inactive: EGFR; 2.5 µM 0 | EGFR_G719S; 2.5 µM 0 | EGFR_G719S_T790M; 2.5 µM 0 | EGFR_L718V; 2.5 µM 0 | EGFR_L858R; 2.5 µM 0 | EGFR_L861Q; 2.5 µM 0 | EGFR_T790M; 2.5 µM 0 | EPHA2; 2.5 µM 0 | ERBB3; 2.5 µM 0 | [1]; 2.5 µM 0

Reprinted from above (2 entries):
CC(C)NC[C@@H](C(=O)N1CCN(c2ncnc3c2[C@H](C)C[C@H]3O)CC1)c1ccc(Cl)cc1 [Ipatasertib]
inactive: EGFR; 10 µM 0 | EGFR_G719S; 10 µM 0 | EGFR_G719S_T790M; 10 µM 0 | EGFR_L718V; 10 µM 0 | EGFR_L858R; 10 µM 0 | EGFR_L861Q; 10 µM 0 | EGFR_T790M; 10 µM 0 | EPHA2; 10 µM 0 | ERBB3; 10 µM 0 | [1]; 10 µM 0

CCCCCCCCc1ccc(CCC(N)(CO)CO)cc1 [Fingolimod]
inactive: EGFR; 2.5 µM 0 | EGFR_G719S; 2.5 µM 0 | EGFR_G719S_T790M; 2.5 µM 0 | EGFR_L718V; 2.5 µM 0 | EGFR_L858R; 2.5 µM 0 | EGFR_L861Q; 2.5 µM 0 | EGFR_T790M; 2.5 µM 0 | EPHA2; 2.5 µM 0 | ERBB3; 2.5 µM 0 | [1]; 2.5 µM 0

Additional entries

Nc1ncnc2c1c(-c1ccc(Oc3ccccc3)cc1)nn2[C@@H]1CCCNC1
inactive: EGFR; 2.5 µM 0 | EGFR_G719S; 2.5 µM 0 | EGFR_G719S_T790M; 2.5 µM 0 | EGFR_L718V; 2.5 µM 0 | EGFR_L858R; 2.5 µM 0 | EGFR_L861Q; 2.5 µM 0 | EGFR_T790M; 2.5 µM 0 | EPHA2; 2.5 µM 0 | ERBB3; 2.5 µM 0 | [1]; 2.5 µM 0

C#Cc1cccc(Nc2ncnc3cc(OCCOC)c(OCCOC)cc23)c1 [Erlotinib]
inactive: EPHA2; 10 µM 0 | ERBB3; 10 µM 0 | [1]; 10 µM 0

C#Cc1cccc(Nc2ncnc3cc(OCCOC)c(OCCO)cc23)c1 [Desmethyl Erlotinib (hydrochloride)]
inactive: EGFR; 10 µM 0 | EGFR_G719S; 10 µM 0 | EGFR_G719S_T790M; 10 µM 0 | EGFR_L718V; 10 µM 0 | EGFR_L858R; 10 µM 0 | EGFR_L861Q; 10 µM 0 | EGFR_T790M; 10 µM 0 | EPHA2; 10 µM 0 | ERBB3; 10 µM 0 | [1]; 10 µM 0

N#CCC1(n2cc(-c3ncnc4[nH]ccc34)cn2)CN(C2CCN(C(=O)c3ccnc(C(F)(F)F)c3F)CC2)C1 [Itacitinib]
inactive: EGFR; 10 µM 0 | EGFR_G719S; 10 µM 0 | EGFR_G719S_T790M; 10 µM 0 | EGFR_L718V; 10 µM 0 | EGFR_L858R; 10 µM 0 | EGFR_L861Q; 10 µM 0 | EGFR_T790M; 10 µM 0 | EPHA2; 10 µM 0 | ERBB3; 10 µM 0 | [1]; 10 µM 0

CCc1nc(C(N)=O)c(Nc2ccc(N3CCC(N4CCN(C)CC4)CC3)c(OC)c2)nc1NC1CCOCC1 [Gilteritinib]
inactive: EGFR; 2 µM 0 | EGFR_G719S; 2 µM 0 | EGFR_G719S_T790M; 2 µM 0 | EGFR_L718V; 2 µM 0 | EGFR_L858R; 2 µM 0 | EGFR_L861Q; 2 µM 0 | EGFR_T790M; 2 µM 0 | EPHA2; 2 µM 0 | ERBB3; 2 µM 0 | [1]; 2 µM 0

C=CC(=O)Nc1cc(Nc2nccc(-c3cn(C)c4ccccc34)n2)c(OC)cc1N(C)CCN(C)C [Osimertinib]
inactive: EPHA2; 2.5 µM 0 | ERBB3; 2.5 µM 0 | [1]; 2.5 µM 0

CN(C)C/C=C/C(=O)Nc1cc2c(Nc3ccc(F)c(Cl)c3)ncnc2cc1O[C@H]1CCOC1 [Afatinib]
inactive: EPHA2; 10 µM 0 | ERBB3; 10 µM 0 | [1]; 10 µM 0

O=C(c1nn(-c2ccc(CN3CCOCC3)cc2)c2c1CS(=O)(=O)c1c(F)cccc1-2)N1CCOCC1
inactive: EGFR; 10 µM 0 | EGFR_G719S; 10 µM 0 | EGFR_G719S_T790M; 10 µM 0 | EGFR_L718V; 10 µM 0 | EGFR_L858R; 10 µM 0 | EGFR_L861Q; 10 µM 0 | EGFR_T790M; 10 µM 0 | EPHA2; 10 µM 0 | ERBB3; 10 µM 0 | [1]; 10 µM 0
